We go through two molecules from publication doi:10.1101/850776.

For the assay, the target named is T1, GFP-tagged mouse RHBDL4-SA (catalytically inactive serine-144-alanine mutant) (mouse) (UniProt Q8BHC7).
T1 sequence: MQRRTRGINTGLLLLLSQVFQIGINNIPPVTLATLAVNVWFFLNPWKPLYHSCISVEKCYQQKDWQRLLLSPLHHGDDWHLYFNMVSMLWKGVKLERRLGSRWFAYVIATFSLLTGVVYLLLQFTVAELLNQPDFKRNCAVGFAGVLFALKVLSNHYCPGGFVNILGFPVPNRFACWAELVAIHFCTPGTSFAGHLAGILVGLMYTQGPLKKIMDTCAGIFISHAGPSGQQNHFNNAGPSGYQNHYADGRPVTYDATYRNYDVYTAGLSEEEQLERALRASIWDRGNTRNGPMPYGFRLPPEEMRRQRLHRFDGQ
Briefly: co-IP.

Results are given in words; binding and its absence hold for the method and conditions named. In cells and extracts the contact can be indirect. Some binding calls cover weakened binding; strength is not graded here. Tags and fused reporters may be left off the sequences shown.

B1: STT3A (protein, UniProt P46977 1-705)
chain: MTKFGFLRLSYEKQDTLLKLLILSMAAVLSFSTRLFAVLRFESVIHEFDPYFNYRTTRFLAEEGFYKFHNWFDDRAWYPLGRIIGGTIYPGLMITSAAIYHVLHFFHITIDIRNVCVFLAPLFSSFTTIVTYHLTKELKDAGAGLLAAAMIAVVPGYISRSVAGSYDNEGIAIFCMLLTYYMWIKAVKTGSICWAAKCALAYFYMVSSWGGYVFLINLIPLHVLVLMLTGRFSHRIYVAYCTVYCLGTILSMQISFVGFQPVLSSEHMAAFGVFGLCQIHAFVDYLRSKLNPQQFEVLFRSVISLVGFVLLTVGALLMLTGKISPWTGRFYSLLDPSYAKNNIPIIASVSEHQPTTWSSYYFDLQLLVFMFPVGLYYCFSNLSDARIFIIMYGVTSMYFSAVMVRLMLVLAPVMCILSGIGVSQVLSTYMKNLDISRPDKKSKKQQDSTYPIKNEVASGMILVMAFFLITYTFHSTWVTSEAYSSPSIVLSARGGDGSRIIFDDFREAYYWLRHNTPEDAKVMSWWDYGYQITAMANRTILVDNNTWNNTHISRVGQAMASTEEKAYEIMRELDVSYVLVIFGGLTGYSSDDINKFLWMVRIGGSTDTGKHIKENDYYTPTGEFRVDREGSPVLLNCLMYKMCYYRFGQVYTEAKRPPGFDRVRNAEIGNKDFELDVLEEAYTTEHWLVRIYKVKDLDNRGLSRT
For the molecule B1, the binding entry was “binds”.

B2: RPN1 (protein, UniProt P04843 24-607)
chain: ASSEAPPLINEDVKRTVDLSSHLAKVTAEVVLAHLGGGSTSRATSFLLALEPELEARLAHLGVQVKGEDEEENNLEVRETKIKGKSGRFFTVKLPVALDPGAKISVIVETVYTHVLHPYPTQITQSEKQFVVFEGNHYFYSPYPTKTQTMRVKLASRNVESYTKLGNPTRSEDLLDYGPFRDVPAYSQDTFKVHYENNSPFLTITSMTRVIEVSHWGNIAVEENVDLKHTGAVLKGPFSRYDYQRQPDSGISSIRSFKTILPAAAQDVYYRDEIGNVSTSHLLILDDSVEMEIRPRFPLFGGWKTHYIVGYNLPSYEYLYNLGDQYALKMRFVDHVFDEQVIDSLTVKIILPEGAKNIEIDSPYEISRAPDELHYTYLDTFGRPVIVAYKKNLVEQHIQDIVVHYTFNKVLMLQEPLLVVAAFYILFFTVIIYVRLDFSITKDPAAEARMKVACITEQVLTLVNKRIGLYRHFDETVNRYKQSRDISTLNSGKKSLETEHKALTSEIALLQSRLKTEGSDLCDRVSEMQKLDAQVKELVLKSAVEAERLVAGKLKKDTYIENEKLISGKRQELVTKIDHILDAL
Turning to B2, the binding entry is “binds”.
